From publication PMC3136212
For some assays here: A negative result means that nothing was seen under these conditions. For some assays here: The exact form of at least one protein or probe is not confirmed. For some assays here: At least one verdict rests on a figure or table, not on a statement of the authors.

Chains of the proteins cited; added tags and fusions are not shown. Chains listed by the source or under a name are the forms on record and can include a tag or linker. Residues count along the entry.
UniProt P27694, 181-441: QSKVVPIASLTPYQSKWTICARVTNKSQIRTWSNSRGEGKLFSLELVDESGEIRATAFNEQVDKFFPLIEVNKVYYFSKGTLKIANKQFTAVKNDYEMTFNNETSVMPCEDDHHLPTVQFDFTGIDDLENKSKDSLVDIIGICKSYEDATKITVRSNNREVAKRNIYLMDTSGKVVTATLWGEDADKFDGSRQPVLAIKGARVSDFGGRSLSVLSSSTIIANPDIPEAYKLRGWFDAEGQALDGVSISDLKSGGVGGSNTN
UniProt P27694, 432-595 V435T/W442Q/V465T/V469T/F523S/F567S/I571T: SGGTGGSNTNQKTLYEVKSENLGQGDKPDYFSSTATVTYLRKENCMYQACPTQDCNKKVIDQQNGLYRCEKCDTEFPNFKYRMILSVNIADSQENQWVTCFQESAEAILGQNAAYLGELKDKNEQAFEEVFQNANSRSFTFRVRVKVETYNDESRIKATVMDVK
RPA (full-length heterotrimer RPA1/RPA2/RPA3) (human), one chain, as listed by the source, chain 3 of 3: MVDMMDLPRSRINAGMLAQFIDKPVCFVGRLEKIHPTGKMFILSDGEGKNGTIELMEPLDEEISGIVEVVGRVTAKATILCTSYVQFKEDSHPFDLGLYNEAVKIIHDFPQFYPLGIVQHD
RPA-CDE-core (human), one chain, as listed by the source, chain 2 of 3: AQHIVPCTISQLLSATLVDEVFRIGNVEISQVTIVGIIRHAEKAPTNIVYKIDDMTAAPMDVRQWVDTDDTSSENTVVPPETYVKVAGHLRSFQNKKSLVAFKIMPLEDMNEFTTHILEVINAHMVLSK
RPA (full-length heterotrimer RPA1/RPA2/RPA3) (human), one chain, as listed by the source, chain 1 of 3: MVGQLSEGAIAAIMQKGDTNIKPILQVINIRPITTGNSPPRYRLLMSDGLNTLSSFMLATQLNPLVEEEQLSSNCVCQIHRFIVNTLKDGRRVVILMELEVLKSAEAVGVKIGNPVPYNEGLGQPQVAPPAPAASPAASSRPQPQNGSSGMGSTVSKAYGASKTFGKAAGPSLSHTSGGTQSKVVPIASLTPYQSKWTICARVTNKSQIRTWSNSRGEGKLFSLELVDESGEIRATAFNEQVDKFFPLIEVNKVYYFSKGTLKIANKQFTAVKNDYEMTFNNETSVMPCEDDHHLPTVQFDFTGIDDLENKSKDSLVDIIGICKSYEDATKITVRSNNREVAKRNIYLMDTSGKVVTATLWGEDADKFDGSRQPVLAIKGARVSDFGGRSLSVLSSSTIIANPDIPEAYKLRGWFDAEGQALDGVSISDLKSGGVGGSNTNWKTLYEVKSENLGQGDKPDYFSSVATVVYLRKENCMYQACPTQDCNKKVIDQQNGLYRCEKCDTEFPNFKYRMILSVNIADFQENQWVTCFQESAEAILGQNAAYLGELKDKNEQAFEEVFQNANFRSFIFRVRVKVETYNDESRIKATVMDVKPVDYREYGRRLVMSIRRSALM
RPA (full-length heterotrimer RPA1/RPA2/RPA3) (human), one chain, as listed by the source, chain 2 of 3: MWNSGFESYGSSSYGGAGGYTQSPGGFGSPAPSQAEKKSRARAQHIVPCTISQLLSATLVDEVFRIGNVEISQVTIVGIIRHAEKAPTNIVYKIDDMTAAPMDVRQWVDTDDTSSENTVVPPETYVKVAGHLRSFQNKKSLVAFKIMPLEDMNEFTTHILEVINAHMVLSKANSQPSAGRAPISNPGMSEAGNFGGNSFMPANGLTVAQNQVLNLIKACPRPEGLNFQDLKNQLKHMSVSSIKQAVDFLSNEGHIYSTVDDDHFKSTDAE
RPA-CDE-core (human), one chain, as listed by the source, chain 1 of 3: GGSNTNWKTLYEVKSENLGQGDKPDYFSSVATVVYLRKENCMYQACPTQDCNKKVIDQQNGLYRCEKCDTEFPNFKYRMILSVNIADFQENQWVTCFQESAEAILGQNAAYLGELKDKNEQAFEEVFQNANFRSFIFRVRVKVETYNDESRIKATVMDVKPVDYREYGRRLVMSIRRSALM
RPA-CDE (human), one chain, as listed by the source, chain 1 of 3: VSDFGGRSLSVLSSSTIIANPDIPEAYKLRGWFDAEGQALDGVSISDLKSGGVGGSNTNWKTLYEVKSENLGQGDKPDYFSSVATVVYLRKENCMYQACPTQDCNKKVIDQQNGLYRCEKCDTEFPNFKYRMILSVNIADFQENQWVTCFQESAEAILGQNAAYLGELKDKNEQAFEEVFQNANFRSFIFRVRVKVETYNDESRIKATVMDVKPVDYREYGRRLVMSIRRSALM

What was measured:
RPA-AB (human) = RPA-AB (human) (UniProt P27694); test: FP; settings: 18-carbon spacer (sp18) at 5' end, FP: 0.060 uM FAM-oligo, 10-1500 mM NaCl, room temperature, recombinant protein, residues 181-441, protein details: N-terminal His6, thrombin-cleaved, label: 5' 6-FAM
[1] = tested on: RPA (full-length heterotrimer RPA1/RPA2/RPA3) (human); test: FP; settings: 18-carbon spacer (sp18) at 5' end, FP: 0.060 uM FAM-oligo, 10-1500 mM NaCl, room temperature, recombinant protein, label: 5' 6-FAM, single-stranded DNA
RPA-CDE-core (human) = test: FP; settings: 18-carbon spacer (sp18) at 5' end, FP: 0.060 uM FAM-oligo, 10-1500 mM NaCl, room temperature, recombinant protein, protein details: N-terminal His, thrombin-cleaved, label: 5' 6-FAM
[2] = target: RPA-C V435T,W442Q,V465T,V469T,F523S,F567S,I571T (human) (UniProt P27694); test: FP; settings: 100 mM NaCl, 18-carbon spacer (sp18) at 5' end, FP: 0.060 uM FAM-oligo, 10-1500 mM NaCl, room temperature, recombinant protein, residues 432-595, protein details: N-terminal His, thrombin-cleaved, label: 5' 6-FAM
RPA-CDE (human) = test: CD titration; settings: remains random coil when bound; CD: Buffer A 25 mM Tris pH 7.5, 2 mM MgCl2, 6% glycerol, 1 mM DTT, 100 (or 10) mM NaCl, room temperature; recombinant protein; single-stranded DNA
RPA-DE (human) = test: FP; settings: 100 mM NaCl; 18-carbon spacer (sp18) at 5' end; FP: 0.060 uM FAM-oligo, 10-1500 mM NaCl, room temperature; recombinant protein; protein details: N-terminal His, thrombin-cleaved; label: 5' 6-FAM; folded or branched DNA
[3] = 500 mM NaCl, single-stranded DNA
[4] = 1250 mM NaCl, single-stranded DNA
[5] = 1250 mM NaCl, folded or branched DNA

## AAAAAAAAAAAAAAAAAAAAAAA [polyA]
RPA-AB (human); [3]
  binding result: no binding
RPA-AB (human); [4]
  binding result: no binding
RPA-AB (human); 1500 mM NaCl, single-stranded DNA
  binding result: no binding
[1]; 1250 mM NaCl
  binding result: no binding
[1]; 1500 mM NaCl
  binding result: no binding
RPA-CDE-core (human); [3]
  binding result: no binding
RPA-CDE-core (human); [4]
  binding result: no binding

## ATCCCCTTCCCAACCTCACCCAA [Anti (Comp)]
[2]; single-stranded DNA
  binding result: no binding

## GTCTTCCTTAATTGTCTTCCTTA [TC23]
RPA-CDE (human)
  binding result: binds

## TAGGGGAAGGGTTGGAGTGGGTT [Gq23 (FP)]
RPA-AB (human); [5]
  binding result: no binding
RPA-AB (human); 1500 mM NaCl, folded or branched DNA
  binding result: no binding
[2]; folded or branched DNA
  binding result: no binding
RPA-CDE-core (human); [5]
  binding result: no binding
RPA-DE (human)
  binding result: no binding
